No constants are given. Whether binding was seen depends on the method and setting. Binding seen in cells or lysates may run through a third protein. Some entries that bind do so weakly or less than the wild type.
What was measured:
[1] = biological target: T1, caveolin-1 (mouse (endogenous in mHippoE-14 cells and brain)), P49817; experiment: proximity ligation; Duolink PLA on 5 μm paraffin sections of mouse brain (7 months old Ugcgf/f, 5xFAD and 5xFAD//Cre mice), antigen retrieval in citrate buffer pH 6.0; antibodies to IR and Cav-1; spots counted in cortical neurons; conditions: remark: other sources report otherwise
T1 chain: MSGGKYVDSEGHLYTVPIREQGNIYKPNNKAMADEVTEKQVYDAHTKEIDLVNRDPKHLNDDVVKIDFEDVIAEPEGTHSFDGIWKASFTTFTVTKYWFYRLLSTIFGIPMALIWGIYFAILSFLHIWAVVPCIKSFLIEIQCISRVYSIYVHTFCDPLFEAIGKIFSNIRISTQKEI

[2] = biological target: T1, caveolin-1 (mouse (endogenous in …)); experiment: proximity ligation; Duolink PLA on PFA-fixed mHippoE-14 cells with antibodies to IR and Cav-1; cells exposed to saline or 5 μM ADDLs for 30 min, with or without GENZ pre-treatment; conditions: remark: other sources report otherwise

binding [1]: binds | binding [2]: binds
B1: insulin receptor (IR), P15208 28-748; P15208 753-1372 (receptor)
chain 1: HLYPGEVCPGMDIRNNLTRLHELENCSVIEGHLQILLMFKTRPEDFRDLSFPKLIMITDYLLLFRVYGLESLKDLFPNLTVIRGSRLFFNYALVIFEMVHLKELGLYNLMNITRGSVRIEKNNELCYLATIDWSRILDSVEDNYIVLNKDDNEECGDVCPGTAKGKTNCPATVINGQFVERCWTHSHCQKVCPTICKSHGCTAEGLCCHKECLGNCSEPDDPTKCVACRNFYLDGQCVETCPPPYYHFQDWRCVNFSFCQDLHFKCRNSRKPGCHQYVIHNNKCIPECPSGYTMNSSNLMCTPCLGPCPKVCQILEGEKTIDSVTSAQELRGCTVINGSLIINIRGGNNLAAELEANLGLIEEISGFLKIRRSYALVSLSFFRKLHLIRGETLEIGNYSFYALDNQNLRQLWDWSKHNLTITQGKLFFHYNPKLCLSEIHKMEEVSGTKGRQERNDIALKTNGDQASCENELLKFSFIRTSFDKILLRWEPYWPPDFRDLLGFMLFYKEAPYQNVTEFDGQDACGSNSWTVVDIDPPQRSNDPKSQTPSHPGWLMRGLKPWTQYAIFVKTLVTFSDERRTYGAKSDIIYVQTDATNPSVPLDPISVSNSSSQIILKWKPPSDPNGNITHYLVYWERQAEDSELFELDYCLKGLKLPSRTWSPPFESDDSQKHNQSEYDDSASECCSCPKTDSQILKELEESSFRKTFEDYLHNVVFVPRPS
chain 2: SLEEVGNVTATTLTLPDFPNVSSTIVPTSQEEHRPFEKVVNKESLVISGLRHFTGYRIELQACNQDSPDERCSVAAYVSARTMPEAKADDIVGPVTHEIFENNVVHLMWQEPKEPNGLIVLYEVSYRRYGDEELHLCVSRKHFALERGCRLRGLSPGNYSVRVRATSLAGNGSWTEPTYFYVTDYLDVPSNIAKIIIGPLIFVFLFSVVIGSIYLFLRKRQPDGPMGPLYASSNPEYLSASDVFPSSVYVPDEWEVPREKITLLRELGQGSFGMVYEGNAKDIIKGEAETRVAVKTVNESASLRERIEFLNEASVMKGFTCHHVVRLLGVVSKGQPTLVVMELMAHGDLKSHLRSLRPDAENNPGRPPPTLQEMIQMTAEIADGMAYLNAKKFVHRDLAARNCMVAHDFTVKIGDFGMTRDIYETDYYRKGGKGLLPVRWMSPESLKDGVFTASSDMWSFGVVLWEITSLAEQPYQGLSNEQVLKFVMDGGYLDPPDNCPERLTDLMRMCWQFNPKMRPTFLEIVNLLKDDLHPSFPEVSFFYSEENKAPESEELEMEFEDMENVPLDRSSHCQREEAGGREGGSSLSIKRTYDEHIPYTHMNGGKKNGRVLTLPRSNPS

— paper PMC5027102
